Results on 45 compounds are retold here after the supplement of paper PMC3682954.

This assay has as its system RAW 264.7. Nature of the assay: cell viability (MTT) relative to vehicle control; higher = more viable cells. The following applies: stimulus: HMGB1 5 ug/ml, 18 h.
[1] abbreviates: compound concentration: 1 ug/ml.

Where “and” joins values, the source holds several entries; their conditions need not be identical. Identical values can stand only once. Counter-ions that a name gives are not always drawn. ± gives the standard deviation of the averaged measurements. The list shows a part of the results. Many values rest on one well or one pass, so single values are uncertain.

Take `CCOC(=O)[N-]c1c[n+](N2CCOCC2)no1` [Molsidomine]: the cell viability (as a rule, a read-out of living cells in per cent, often relative to untreated cells) (compound concentration: 3 uM) is 97.5 ± 13%.
Regarding `CCOC(=O)[N-]c1c[n+](N2CCOCC2)no1`, the cell viability (compound concentration: 3 uM) was 97.7%.
With `CO[C@H]1[C@H](O)[C@@H](O)[C@@H](O)[C@H](O)[C@@H]1O` [D-Pinitol ;  3-O-Methyl-D-chiro-inositol], under setting [1], the cell viability turned out to be 91.3%.
`CC[N+](CC)(CC)CCOc1cccc(OCC[N+](CC)(CC)CC)c1OCC[N+](CC)(CC)CC` [Gallamine triethiodide]: the cell viability (compound concentration: 3 uM) stood at 105 ± 3.8%.
On the same count and under the same terms, the same measure for `CC[N+](CC)(CC)CCOc1cccc(OCC[N+](CC)(CC)CC)c1OCC[N+](CC)(CC)CC`: 109%.
Still for that read-out and setting: the same measure for `NS(=O)(=O)c1cc2c(cc1Cl)NC(CC1CCCC1)NS2(=O)=O` (stereo not given) [Cyclopenthiazide]: 78.2%.
Turning to `O=C(O)CCCCC1CCSS1` (racemic) [DL-Thioctic acid], the cell viability under setting [1] was found to be 107%.
As for `O=C(O)CCCCC1CCSS1` (racemic) [(±)-alpha-Lipoic Acid], the cell viability (compound concentration: 3 uM) came to 111%.
Still for that read-out and setting: the value for `CC(C)(C)NCC(O)c1cc(O)cc(O)c1` (stereo not given) [Terbutaline hemisulfate] was 106 ± 14%; that for `CC(C)(C)NCC(O)c1cc(O)cc(O)c1` (stereo not given) was 97.7%.
As for `C#C[C@]1(O)CC[C@H]2[C@@H]3CCC4=C(CCC(=O)C4)[C@H]3CC[C@@]21C` [Norethynodrel], the cell viability (compound concentration: 3 uM) was found to be 106%.
Consider `C#C[C@]1(O)CC[C@H]2[C@@H]3CCC4=C(CCC(=O)C4)[C@H]3CC[C@@]21C`, for which, where the note is “compound concentration: 3 uM”, the cell viability is 104%.
Take `C=C(c1ccc(C(=O)O)cc1)c1cc2c(cc1C)C(C)(C)CCC2(C)C` [Bexarotene]: the cell viability (compound concentration: 3 uM) was 131%.
On the same count and under the same terms, the same measure for `CC/C(=C(\c1ccccc1)c1ccc(OCCN(C)C)cc1)c1ccccc1` [Tamoxifen citrate]: 102 ± 10%; for `CC/C(=C(\c1ccccc1)c1ccc(OCCN(C)C)cc1)c1ccccc1` [Tamoxifen]: 104 ± 4.9%.
Consider `CC/C(=C(\c1ccccc1)c1ccc(OCCN(C)C)cc1)c1ccccc1`, for which, under “compound concentration: 3 uM”, the cell viability is 94.1%.
With `CCc1oc2ccccc2c1C(=O)c1cc(Br)c(O)c(Br)c1`, under “compound concentration: 3 uM”, the cell viability is 88.9% and 93.8%.
On to `CCc1oc2ccccc2c1C(=O)c1cc(Br)c(O)c(Br)c1` [Benzbromarone], for which, under “compound concentration: 3 uM”, the cell viability was 86.4%.
On the same count and under the same terms, the same measure for `NCc1ccc(S(N)(=O)=O)cc1`: 118%.
For the compound `NCc1ccc(S(N)(=O)=O)cc1` [Mafenide hydrochloride], the cell viability (compound concentration: 3 uM) turned out to be 106%.
Take `CN[C@@H]1[C@H](O[C@H]2[C@H](O[C@H]3[C@H](O)[C@@H](O)[C@H](NC(=N)N)[C@@H](O)[C@@H]3NC(=N)N)O[C@@H](C)[C@]2(O)CO)O[C@@H](CO)[C@H](O)[C@H]1O`: the cell viability (compound concentration: 3 uM) worked out at 97.9%.
Same read-out and setting: the value for `CN[C@@H]1[C@H](O[C@H]2[C@H](O[C@H]3[C@H](O)[C@@H](O)[C@H](NC(=N)N)[C@@H](O)[C@@H]3NC(=N)N)O[C@@H](C)[C@]2(O)CO)O[C@@H](CO)[C@H](O)[C@H]1O` [Dihydrostreptomycin sulfate] was 97.6%; that for `CN(CC[C@@H](Oc1ccc(C(F)(F)F)cc1)c1ccccc1)CC(=O)[O-].[Li+]` was 105%; that for `CCN1CCC[C@H]1CNC(=O)c1c(O)c(Cl)cc(Cl)c1OC` [Raclopride] was 116 ± 30%.
For `O=C(O)c1ccccc1`, the cell viability (compound concentration: 3 uM) worked out at 102%.
The same measure, in the same setting: the same measure for `O=C(O)c1cccnc1C(=O)O` [Quinolinic acid]: 101%.
For `CCCCC[C@H](O)/C=C/[C@H]1[C@H](O)CC(=O)[C@@H]1CCCCCCC(=O)O` [Alprostadil], where the note is “compound concentration: 3 uM”, the cell viability is 86.2 ± 6.4%.
Consider `CCCCC[C@H](O)/C=C/[C@H]1[C@H](O)CC(=O)[C@@H]1CCCCCCC(=O)O` [Prostaglandin E1], for which the cell viability (compound concentration: 3 uM) is 97.2%.
The same measure, in the same setting: the value for `COc1cc2ncnc(Nc3ccc(F)c(Cl)c3)c2cc1OCCCN1CCOCC1` [Gefitinib] was 102 ± 1.2%; that for `CC(C(=O)O)c1ccc(C(=O)c2cccs2)cc1` (stereo not given) was 103%; that for `CC(C(=O)O)c1ccc(C(=O)c2cccs2)cc1` (stereo not given) [Suprofen] was 100%.
As to `O=C(c1ccc(OCCCc2c[nH]cn2)cc1)C1CC1` [Ciproxifan hydrochloride], the cell viability (compound concentration: 3 uM) turned out to be 122%.
On to `CN1CCC[C@@H]1CCO[C@](C)(c1ccccc1)c1ccc(Cl)cc1` [Clemastine fumarate], for which the cell viability (compound concentration: 3 uM) came out at 104 ± 5.8%.
For `CN1CCC[C@@H]1CCO[C@](C)(c1ccccc1)c1ccc(Cl)cc1` [Clemastine], for the setting “compound concentration: 3 uM”, the cell viability was found to be 100%.
For the compound `CN1CCC[C@@H]1CCO[C@](C)(c1ccccc1)c1ccc(Cl)cc1`, for the setting “compound concentration: 3 uM”, the cell viability came to 96.8%.
Turning to `CCOc1ccc(NC(C)=O)cc1` [Phenacetin], the cell viability (compound concentration: 3 uM) worked out at 78.5%.
On to `CCOc1ccc(NC(C)=O)cc1`, for which, where the note is “compound concentration: 3 uM”, the cell viability is 102%.
As to `C=CC(C)(O)CCCC(C)CCCC(C)CCCC(C)C` (stereo not given) [Isophytol], under setting [1], the cell viability worked out at 107%.
As for `CN1CCN(c2c(F)cc3c(=O)c(C(=O)O)cn4c3c2SCC4)CC1`, the cell viability (compound concentration: 3 uM) was found to be 102%.
Turning to `CN1CCN(c2c(F)cc3c(=O)c(C(=O)O)cn4c3c2SCC4)CC1` [Rufloxacin], the cell viability (compound concentration: 3 uM) was determined as 109 ± 15%.
Turning to `COc1cccc(-c2oc3cc(OC)ccc3c(=O)c2O)c1` [3',7-Dimethoxy-3-hydroxyflavone], the cell viability under setting [1] turned out to be 117%.
`CC(=O)N[C@H](Cc1ccc2ccccc2c1)C(=O)O` [(R)-N-Acetyl-2-naphthylalanine]: the cell viability under setting [1] was 104%.
`COC(=O)C1=C(C)NC(C)=C(C(=O)OCCN(C)Cc2ccccc2)C1c1cccc([N+](=O)[O-])c1` (stereo not given) [Nicardipine]: the cell viability (compound concentration: 3 uM) came to 113%.
Regarding `COC(=O)C1=C(C)NC(C)=C(C(=O)OCCN(C)Cc2ccccc2)C1c1cccc([N+](=O)[O-])c1` (stereo not given), the cell viability (compound concentration: 3 uM) worked out at 117%.
`COC(=O)C1=C(C)NC(C)=C(C(=O)OCCN(C)Cc2ccccc2)C1c1cccc([N+](=O)[O-])c1` (stereo not given) [Nicardipine hydrochloride]: the cell viability (compound concentration: 3 uM) turned out to be 107 ± 20%.
